From patent publication US20040044006A1, “Methods of use of quinolone compounds against pneumococcal and haemophilus bacteria” (priority 1999, published 2004)
At least one read-out could not be matched to a standard name with certainty.

Test system: penicillin susceptible and resistant pneumococcal strains (2 quinolone resistant)
Assay: Time-kill testing of 12 pneumococcal strains
Format: cell-based, Streptococcus pneumoniae
Conditions: of 12 strains (macrolides 7)
In short: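 Pneumococci at 5×10^5–5×10^6 cfu/ml were exposed to doubling antibiotic concentrations in cation-adjusted Mueller-Hinton broth + 5% lysed horse blood at 35 °C with shaking. Viable counts (detection limit 300 cfu/ml) were taken at 0, 3, 6, 12 and 24 h.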

Which results are given for C[C@H]1COc2c(N3CCN(C)CC3)c(F)cc3c(=O)c(C(=O)O)cn1c23 [Levofloxacin, levofloxacin]?
No. strains −1 Log10 cfu/ml lower than 0 h (3 h, 0.25 × MIC): 0 No. strains; No. strains −2 Log10 cfu/ml lower than 0 h (3 h, 0.25 × MIC): 0 No. strains; No. strains −3 Log10 cfu/ml lower than 0 h (3 h, 0.25 × MIC): 0 No. strains; No. strains −1 Log10 cfu/ml lower than 0 h (3 h, 0.5 × MIC): 4 No. strains; No. strains −2 Log10 cfu/ml lower than 0 h (3 h, 0.5 × MIC): 1 No. strains; No. strains −3 Log10 cfu/ml lower than 0 h (3 h, 0.5 × MIC): 0 No. strains; No. strains −1 Log10 cfu/ml lower than 0 h (3 h, 2 × MIC): 10 No. strains; No. strains −2 Log10 cfu/ml lower than 0 h (3 h, 2 × MIC): 2 No. strains; No. strains −3 Log10 cfu/ml lower than 0 h (3 h, 2 × MIC): 0 No. strains; No. strains −1 Log10 cfu/ml lower than 0 h (3 h, 4 × MIC): 10 No. strains; No. strains −2 Log10 cfu/ml lower than 0 h (3 h, 4 × MIC): 4 No. strains; No. strains −3 Log10 cfu/ml lower than 0 h (3 h, 4 × MIC): 0 No. strains; No. strains −1 Log10 cfu/ml lower than 0 h (3 h, 8 × MIC): 11 No. strains; No. strains −2 Log10 cfu/ml lower than 0 h (3 h, 8 × MIC): 3 No. strains; No. strains −3 Log10 cfu/ml lower than 0 h (3 h, 8 × MIC): 0 No. strains; No. strains −1 Log10 cfu/ml lower than 0 h (3 h, MIC): 9 No. strains; No. strains −2 Log10 cfu/ml lower than 0 h (3 h, MIC): 1 No. strains; No. strains −3 Log10 cfu/ml lower than 0 h (3 h, MIC): 0 No. strains; No. strains −1 Log10 cfu/ml lower than 0 h (6 h, 0.25 × MIC): 0 No. strains; No. strains −2 Log10 cfu/ml lower than 0 h (6 h, 0.25 × MIC): 0 No. strains; No. strains −3 Log10 cfu/ml lower than 0 h (6 h, 0.25 × MIC): 0 No. strains; No. strains −1 Log10 cfu/ml lower than 0 h (6 h, 0.5 × MIC): 8 No. strains; No. strains −2 Log10 cfu/ml lower than 0 h (6 h, 0.5 × MIC): 1 No. strains; No. strains −3 Log10 cfu/ml lower than 0 h (6 h, 0.5 × MIC): 0 No. strains; No. strains −1 Log10 cfu/ml lower than 0 h (6 h, 2 × MIC): 12 No. strains; No. strains −2 Log10 cfu/ml lower than 0 h (6 h, 2 × MIC): 9 No. strains; No. strains −3 Log10 cfu/ml lower than 0 h (6 h, 2 × MIC): 1 No. strains; No. strains −1 Log10 cfu/ml lower than 0 h (6 h, 4 × MIC): 12 No. strains; No. strains −2 Log10 cfu/ml lower than 0 h (6 h, 4 × MIC): 9 No. strains; No. strains −3 Log10 cfu/ml lower than 0 h (6 h, 4 × MIC): 1 No. strains; No. strains −1 Log10 cfu/ml lower than 0 h (6 h, 8 × MIC): 12 No. strains; No. strains −2 Log10 cfu/ml lower than 0 h (6 h, 8 × MIC): 9 No. strains; No. strains −3 Log10 cfu/ml lower than 0 h (6 h, 8 × MIC): 4 No. strains; No. strains −1 Log10 cfu/ml lower than 0 h (6 h, MIC): 12 No. strains; No. strains −2 Log10 cfu/ml lower than 0 h (6 h, MIC): 6 No. strains; No. strains −3 Log10 cfu/ml lower than 0 h (6 h, MIC): 0 No. strains; No. strains −1 Log10 cfu/ml lower than 0 h (12 h, 0.25 × MIC): 0 No. strains; No. strains −2 Log10 cfu/ml lower than 0 h (12 h, 0.25 × MIC): 0 No. strains; No. strains −3 Log10 cfu/ml lower than 0 h (12 h, 0.25 × MIC): 0 No. strains; No. strains −1 Log10 cfu/ml lower than 0 h (12 h, 0.5 × MIC): 7 No. strains; No. strains −2 Log10 cfu/ml lower than 0 h (12 h, 0.5 × MIC): 3 No. strains; No. strains −3 Log10 cfu/ml lower than 0 h (12 h, 0.5 × MIC): 0 No. strains; No. strains −1 Log10 cfu/ml lower than 0 h (12 h, 2 × MIC): 12 No. strains; No. strains −2 Log10 cfu/ml lower than 0 h (12 h, 2 × MIC): 12 No. strains; No. strains −3 Log10 cfu/ml lower than 0 h (12 h, 2 × MIC): 9 No. strains; No. strains −1 Log10 cfu/ml lower than 0 h (12 h, 4 × MIC): 12 No. strains; No. strains −2 Log10 cfu/ml lower than 0 h (12 h, 4 × MIC): 12 No. strains; No. strains −3 Log10 cfu/ml lower than 0 h (12 h, 4 × MIC): 8 No. strains; No. strains −1 Log10 cfu/ml lower than 0 h (12 h, 8 × MIC): 12 No. strains; No. strains −2 Log10 cfu/ml lower than 0 h (12 h, 8 × MIC): 12 No. strains; No. strains −3 Log10 cfu/ml lower than 0 h (12 h, 8 × MIC): 10 No. strains; No. strains −1 Log10 cfu/ml lower than 0 h (12 h, MIC): 12 No. strains; No. strains −2 Log10 cfu/ml lower than 0 h (12 h, MIC): 11 No. strains; No. strains −3 Log10 cfu/ml lower than 0 h (12 h, MIC): 7 No. strains; No. strains −1 Log10 cfu/ml lower than 0 h (24 h, 0.25 × MIC): 0 No. strains; No. strains −2 Log10 cfu/ml lower than 0 h (24 h, 0.25 × MIC): 0 No. strains; No. strains −3 Log10 cfu/ml lower than 0 h (24 h, 0.25 × MIC): 0 No. strains; No. strains −1 Log10 cfu/ml lower than 0 h (24 h, 0.5 × MIC): 8 No. strains; No. strains −2 Log10 cfu/ml lower than 0 h (24 h, 0.5 × MIC): 7 No. strains; No. strains −3 Log10 cfu/ml lower than 0 h (24 h, 0.5 × MIC): 5 No. strains; No. strains −1 Log10 cfu/ml lower than 0 h (24 h, 2 × MIC): 12 No. strains; No. strains −2 Log10 cfu/ml lower than 0 h (24 h, 2 × MIC): 12 No. strains; No. strains −3 Log10 cfu/ml lower than 0 h (24 h, 2 × MIC): 12 No. strains; No. strains −1 Log10 cfu/ml lower than 0 h (24 h, 4 × MIC): 12 No. strains; No. strains −2 Log10 cfu/ml lower than 0 h (24 h, 4 × MIC): 12 No. strains; No. strains −3 Log10 cfu/ml lower than 0 h (24 h, 4 × MIC): 12 No. strains; No. strains −1 Log10 cfu/ml lower than 0 h (24 h, 8 × MIC): 12 No. strains; No. strains −2 Log10 cfu/ml lower than 0 h (24 h, 8 × MIC): 12 No. strains; No. strains −3 Log10 cfu/ml lower than 0 h (24 h, 8 × MIC): 12 No. strains; No. strains −1 Log10 cfu/ml lower than 0 h (24 h, MIC): 12 No. strains; No. strains −2 Log10 cfu/ml lower than 0 h (24 h, MIC): 12 No. strains; No. strains −3 Log10 cfu/ml lower than 0 h (24 h, MIC): 12 No. strains
